Results on 1 substance are retold here after patent US20210349096A1.

Chains of the proteins cited; added tags and fusions are not shown. Residues count along the entry.
UniProt Q8NHJ6, residues 22-448: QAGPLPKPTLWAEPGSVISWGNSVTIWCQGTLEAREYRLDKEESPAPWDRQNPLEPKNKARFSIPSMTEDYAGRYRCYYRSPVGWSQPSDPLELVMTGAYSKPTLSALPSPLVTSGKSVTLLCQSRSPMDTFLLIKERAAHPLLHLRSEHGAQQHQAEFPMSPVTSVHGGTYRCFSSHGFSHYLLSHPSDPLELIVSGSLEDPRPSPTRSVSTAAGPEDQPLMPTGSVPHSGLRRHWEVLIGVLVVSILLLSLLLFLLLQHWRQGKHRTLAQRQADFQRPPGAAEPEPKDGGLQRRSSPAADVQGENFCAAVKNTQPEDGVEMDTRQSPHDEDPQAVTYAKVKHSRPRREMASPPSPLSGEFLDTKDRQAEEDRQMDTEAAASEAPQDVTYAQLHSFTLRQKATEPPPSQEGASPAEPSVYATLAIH
UniProt P02649, residues 19-317: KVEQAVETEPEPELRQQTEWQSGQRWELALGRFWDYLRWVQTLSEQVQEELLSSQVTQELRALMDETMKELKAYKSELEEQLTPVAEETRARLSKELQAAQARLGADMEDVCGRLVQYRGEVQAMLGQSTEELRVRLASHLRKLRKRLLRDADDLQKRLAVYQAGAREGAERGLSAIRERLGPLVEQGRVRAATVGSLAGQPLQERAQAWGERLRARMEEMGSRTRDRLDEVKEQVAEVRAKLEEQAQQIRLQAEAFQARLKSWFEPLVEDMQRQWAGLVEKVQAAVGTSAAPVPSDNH

Assay [1] addresses LILRB4 on human monocytic AML THP-1 cells (human) (UniProt Q8NHJ6). Briefly: flow cytometry, wild-type against lilrb4-knockout THP-1 cells; anti-His tag-APC alone as negative control.
Assay [2] shares this target. The assay is described as follows: flow cytometry, wild-type against lilrb4-knockout THP-1 cells.

These are yes or no findings as the source states them, for the method shown. Some binding calls cover weakened binding; strength is not graded here.

Consider “recombinant APOE (from UniProt P02649 19-317) (ligand)”, for which the binding result in assay [1] and in assay [2] was “binds” throughout.
